Assay results published in the supplement of paper PMC10032668.
Some of the results follow. Only hits are listed; about a third recur on repeated control peptides.

By UniProt entry, the sequences of proteins in these tests, tags left out.
ATP6V0D1, P61421, UniProt P61421, whole entry: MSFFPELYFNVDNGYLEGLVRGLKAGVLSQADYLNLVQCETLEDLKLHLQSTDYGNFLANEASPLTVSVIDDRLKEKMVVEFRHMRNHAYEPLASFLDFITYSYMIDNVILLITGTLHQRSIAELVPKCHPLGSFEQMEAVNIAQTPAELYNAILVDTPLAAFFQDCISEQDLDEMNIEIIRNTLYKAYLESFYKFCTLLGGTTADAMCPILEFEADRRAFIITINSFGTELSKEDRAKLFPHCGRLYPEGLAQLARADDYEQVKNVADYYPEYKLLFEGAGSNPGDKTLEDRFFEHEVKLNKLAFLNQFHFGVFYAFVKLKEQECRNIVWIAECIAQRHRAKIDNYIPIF
DCTN5, Q9BTE1, UniProt Q9BTE1, whole entry: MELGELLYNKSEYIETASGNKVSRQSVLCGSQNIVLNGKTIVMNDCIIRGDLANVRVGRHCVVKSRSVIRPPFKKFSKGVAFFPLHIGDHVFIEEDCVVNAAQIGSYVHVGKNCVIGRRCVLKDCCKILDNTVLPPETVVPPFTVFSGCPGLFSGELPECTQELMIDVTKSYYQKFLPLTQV
INTS7, Q9NVH2, UniProt Q9NVH2, whole entry: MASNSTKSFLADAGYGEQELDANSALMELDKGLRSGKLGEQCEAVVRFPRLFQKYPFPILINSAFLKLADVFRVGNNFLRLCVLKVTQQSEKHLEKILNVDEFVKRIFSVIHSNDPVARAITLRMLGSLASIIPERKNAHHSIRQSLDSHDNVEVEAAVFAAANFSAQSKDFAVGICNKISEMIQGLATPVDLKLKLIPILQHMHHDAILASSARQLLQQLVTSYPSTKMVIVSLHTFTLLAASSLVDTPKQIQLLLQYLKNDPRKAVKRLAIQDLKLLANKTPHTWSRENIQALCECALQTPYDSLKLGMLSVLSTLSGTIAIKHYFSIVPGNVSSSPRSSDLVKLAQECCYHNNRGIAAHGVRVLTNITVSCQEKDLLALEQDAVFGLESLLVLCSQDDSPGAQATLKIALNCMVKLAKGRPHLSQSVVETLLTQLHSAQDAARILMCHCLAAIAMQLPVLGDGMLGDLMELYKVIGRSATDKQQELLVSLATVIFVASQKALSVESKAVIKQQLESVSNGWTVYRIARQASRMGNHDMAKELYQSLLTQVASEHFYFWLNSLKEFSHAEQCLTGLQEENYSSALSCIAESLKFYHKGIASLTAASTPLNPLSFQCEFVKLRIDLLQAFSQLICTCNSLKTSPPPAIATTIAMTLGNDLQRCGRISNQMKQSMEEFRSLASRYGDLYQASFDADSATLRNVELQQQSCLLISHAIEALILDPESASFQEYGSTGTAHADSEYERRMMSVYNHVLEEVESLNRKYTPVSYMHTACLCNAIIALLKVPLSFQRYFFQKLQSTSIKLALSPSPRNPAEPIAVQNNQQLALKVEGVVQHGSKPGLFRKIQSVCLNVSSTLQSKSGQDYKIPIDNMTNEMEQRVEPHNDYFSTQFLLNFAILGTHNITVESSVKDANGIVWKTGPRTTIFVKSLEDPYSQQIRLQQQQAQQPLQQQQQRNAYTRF
KHDRBS1, Q07666, UniProt Q07666, whole entry: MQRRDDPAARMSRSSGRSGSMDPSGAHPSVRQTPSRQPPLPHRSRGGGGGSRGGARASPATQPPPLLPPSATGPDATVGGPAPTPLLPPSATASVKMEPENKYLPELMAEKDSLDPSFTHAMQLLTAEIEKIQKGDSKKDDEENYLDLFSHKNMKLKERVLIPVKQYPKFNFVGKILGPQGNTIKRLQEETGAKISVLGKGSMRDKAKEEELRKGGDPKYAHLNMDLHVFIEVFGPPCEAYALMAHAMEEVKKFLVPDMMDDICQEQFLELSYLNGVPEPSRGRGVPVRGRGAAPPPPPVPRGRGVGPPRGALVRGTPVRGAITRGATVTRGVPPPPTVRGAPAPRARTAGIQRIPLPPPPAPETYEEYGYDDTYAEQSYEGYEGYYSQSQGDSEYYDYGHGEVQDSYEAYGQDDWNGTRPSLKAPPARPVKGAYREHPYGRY
NDUFB7, P17568, UniProt P17568, whole entry: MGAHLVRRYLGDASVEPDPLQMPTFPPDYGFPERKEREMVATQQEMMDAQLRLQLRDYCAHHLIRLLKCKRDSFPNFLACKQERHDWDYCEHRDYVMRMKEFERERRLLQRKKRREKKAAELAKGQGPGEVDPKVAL
PIN1, Q13526, UniProt Q13526, whole entry: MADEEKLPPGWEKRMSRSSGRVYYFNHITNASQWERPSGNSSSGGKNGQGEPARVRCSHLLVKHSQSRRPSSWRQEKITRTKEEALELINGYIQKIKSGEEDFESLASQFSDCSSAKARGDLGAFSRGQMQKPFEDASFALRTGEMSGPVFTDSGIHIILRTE

How the values were obtained:
Experiment in all cases: PRISMA enrichment of interactor (LFQ) in peptide spot vs all other peptide spots (log2 fold change); higher = stronger / more specific binding of the interactor to the peptide
AP2B1, P63010 = target: AP2B1, P63010
Method: (§1)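 PRISMA: 15-aa overlapping tiles (offset 8 aa) of 60 microproteins, plus SOS1/GLUT1 control peptides, were spot-synthesized on cellulose membranes in triplicate. Membranes were incubated with benzonase-treated HEK293T lysate, and bound proteins were identified by LC-MS/MS with LFQ. Enrichment is the log2 fold change of each protein in one spot versus all other spots. Only interactors passing the significance cutoff are listed.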

AP2M1, Q96CW1 = target: AP2M1, Q96CW1
Method: as §1

ATP6V0D1, P61421 = target: ATP6V0D1, P61421
Method: as §1

BCKDK, O14874 = target: BCKDK, O14874
Method: as §1

DCTN5, Q9BTE1 = target: DCTN5, Q9BTE1
Method: as §1

EIF6, P56537 = target: EIF6, P56537
Method: as §1

EWSR1, Q01844 = target: EWSR1, Q01844
Method: as §1

FAM98B, Q52LJ0 = target: FAM98B, Q52LJ0
Method: as §1

FUS, P35637 = target: FUS, P35637
Method: as §1

HERC5, Q9UII4 = target: HERC5, Q9UII4
Method: as §1

HSPA4, P34932 = target: HSPA4, P34932
Method: as §1

INTS7, Q9NVH2 = target: INTS7, Q9NVH2
Method: as §1

MRTO4, Q9UKD2 = target: MRTO4, Q9UKD2
Method: as §1

PDP1, Q9P0J1 = target: PDP1, Q9P0J1
Method: as §1

[1] = substrate: PPIF, P30405
Method: as §1

RRS1, Q15050 = target: RRS1, Q15050
Method: as §1

SFPQ, P23246 = target: SFPQ, P23246
Method: as §1

STRAP, Q9Y3F4 = target: STRAP, Q9Y3F4
Method: as §1

TIAL1, Q01085 = target: TIAL1, Q01085
Method: as §1

C19orf53, Q9UNZ5 = target: C19orf53, Q9UNZ5
Method: as §1

KIF22, Q14807 = target: KIF22, Q14807
Method: as §1

MUC19, Q7Z5P9 = target: MUC19, Q7Z5P9
Method: as §1

CKMT1A, P12532 = target: CKMT1A, P12532
Method: as §1

EMG1, Q92979 = target: EMG1, Q92979
Method: as §1

FAM83D, Q9H4H8 = target: FAM83D, Q9H4H8
Method: as §1

FAM98A, Q8NCA5 = target: FAM98A, Q8NCA5
Method: as §1

GABARAPL2, P60520 = target: GABARAPL2, P60520
Method: as §1

HNRNPA2B1, P22626 = target: HNRNPA2B1, P22626
Method: as §1

IBA57, Q5T440 = target: IBA57, Q5T440
Method: as §1

KHDRBS1, Q07666 = target: KHDRBS1, Q07666
Method: as §1

MRPL15, Q9P015 = target: MRPL15, Q9P015
Method: as §1

NDUFB7, P17568 = target: NDUFB7, P17568
Method: as §1

NECAP2, Q9NVZ3 = target: NECAP2, Q9NVZ3
Method: as §1

[2] = substrate: NONO, Q15233
Method: as §1

NUDT16L1, Q9BRJ7 = target: NUDT16L1, Q9BRJ7
Method: as §1

PIN1, Q13526 = target: PIN1, Q13526
Method: as §1

RBMX, P38159 = target: RBMX, P38159
Method: as §1

STAG2, Q8N3U4 = target: STAG2, Q8N3U4
Method: as §1

hCG_1984214 = target: hCG_1984214
Method: as §1

Question: How did the “PRISMA enrichment of interactor (log2)” value (AP2B1, P63010) turn out when TVRTCDRFWQTEPAL was run?
Answer: 5.34

Question: What about the “PRISMA enrichment of interactor (log2)” value (AP2M1, Q96CW1) of the same binder?
Answer: 4.85

Question: And the “PRISMA enrichment of interactor (log2)” value (ATP6V0D1, P61421)?
Answer: 7.2

Question: What about the “PRISMA enrichment of interactor (log2)” value (BCKDK, O14874) of the same binder?
Answer: 4.68

Question: And the “PRISMA enrichment of interactor (log2)” value (DCTN5, Q9BTE1)?
Answer: 4.94

Question: And the “PRISMA enrichment of interactor (log2)” value (EIF6, P56537)?
Answer: 4.45

Question: And the “PRISMA enrichment of interactor (log2)” value (EWSR1, Q01844)?
Answer: 5.83

Question: And the “PRISMA enrichment of interactor (log2)” value (FAM98B, Q52LJ0)?
Answer: 7.02

Question: And the “PRISMA enrichment of interactor (log2)” value (FUS, P35637)?
Answer: 5.93

Question: What about the “PRISMA enrichment of interactor (log2)” value (HERC5, Q9UII4) of the same binder?
Answer: 4.28

Question: What about the “PRISMA enrichment of interactor (log2)” value (HSPA4, P34932) of the same binder?
Answer: 5.18

Question: What about the “PRISMA enrichment of interactor (log2)” value (INTS7, Q9NVH2) of the same binder?
Answer: 5.26

Question: What about the “PRISMA enrichment of interactor (log2)” value (MRTO4, Q9UKD2) of the same binder?
Answer: 4.7

Question: What about the “PRISMA enrichment of interactor (log2)” value (PDP1, Q9P0J1) of the same binder?
Answer: 4.83

Question: And the “PRISMA enrichment of interactor (log2)” value [1]?
Answer: 5.26

Question: What about the “PRISMA enrichment of interactor (log2)” value (RRS1, Q15050) of the same binder?
Answer: 5.17

Question: And the “PRISMA enrichment of interactor (log2)” value (SFPQ, P23246)?
Answer: 4.81

Question: What about the “PRISMA enrichment of interactor (log2)” value (STRAP, Q9Y3F4) of the same binder?
Answer: 6.35

Question: What about the “PRISMA enrichment of interactor (log2)” value (TIAL1, Q01085) of the same binder?
Answer: 5.36

Question: DTEQTGHLCNHMEVC [RP11-620J15.3] was tested. Which “PRISMA enrichment of interactor (log2)” value (AP2B1, P63010) did it give?
Answer: 5.04

Question: What about the “PRISMA enrichment of interactor (log2)” value (C19orf53, Q9UNZ5) of the same binder?
Answer: 6.73

Question: And the “PRISMA enrichment of interactor (log2)” value (KIF22, Q14807)?
Answer: 5.1

Question: And the “PRISMA enrichment of interactor (log2)” value (MUC19, Q7Z5P9)?
Answer: 8.47

Question: What does the source list for CDRFWQTEPALLPPG?
Answer: PRISMA enrichment of interactor (log2) (AP2B1, P63010): 4.88; PRISMA enrichment of interactor (log2) (BCKDK, O14874): 4.3; PRISMA enrichment of interactor (log2) (CKMT1A, P12532): 4.04; PRISMA enrichment of interactor (log2) (EMG1, Q92979): 5.61; PRISMA enrichment of interactor (log2) (EWSR1, Q01844): 7.32; PRISMA enrichment of interactor (log2) (FAM83D, Q9H4H8): 4.75; PRISMA enrichment of interactor (log2) (FAM98A, Q8NCA5): 5.14; PRISMA enrichment of interactor (log2) (FUS, P35637): 7; PRISMA enrichment of interactor (log2) (GABARAPL2, P60520): 4.97; PRISMA enrichment of interactor (log2) (HNRNPA2B1, P22626): 4.6; PRISMA enrichment of interactor (log2) (IBA57, Q5T440): 4.28; PRISMA enrichment of interactor (log2) (KHDRBS1, Q07666): 5.6; PRISMA enrichment of interactor (log2) (MRPL15, Q9P015): 4.99; PRISMA enrichment of interactor (log2) (NDUFB7, P17568): 6.27; PRISMA enrichment of interactor (log2) (NECAP2, Q9NVZ3): 4.51; PRISMA enrichment of interactor (log2) [2]: 5.18; PRISMA enrichment of interactor (log2) (NUDT16L1, Q9BRJ7): 4.57; PRISMA enrichment of interactor (log2) (PIN1, Q13526): 4.45; PRISMA enrichment of interactor (log2) [1]: 5.42; PRISMA enrichment of interactor (log2) (RBMX, P38159): 4.59; PRISMA enrichment of interactor (log2) (RRS1, Q15050): 5.2; PRISMA enrichment of interactor (log2) (SFPQ, P23246): 6.09; PRISMA enrichment of interactor (log2) (STAG2, Q8N3U4): 6.53; PRISMA enrichment of interactor (log2) (hCG_1984214): 5.43
